# The list shows a part of the results. The main result of the screen is listed elsewhere. These columns were measured beside it and carry no call. Compounds called inactive in the main read-out are mostly missing here. Potencies come from curve fits of mixed quality, noted in brackets.
# Assay: qHTS Assay for Lipid Storage Modulators in Drosophila S3 Cells;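 as to cell number change: cells counted by Cell Tracker Red CMTPX staining in the red channel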
# Conditions: BODIPY lipid droplet fluorescence, 18-24 h; for cell number change: measured here: cell count max response, cells fed with added oleic acid
# How it was run: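 Laser-scanning cytometry quantifies lipid droplet accumulation (500–530 nm total intensity; droplet/cell object ratio) in oleic acid-fed (400 uM added) Drosophila S3 cells treated with a concentration series. 20 uM Triacsin C defined 100% inhibition.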
# [1] = measured here: cell number channel AC50, cells fed with added oleic acid
# [2] = measured here: lipid fluorescence (Fed channel) AC50, cells fed with added oleic acid
Structure (SMILES),cell number change,AC50 [1],AC50 [2]
O=S(=O)(Nc1ccc2nc(C(F)(F)F)[nH]c2c1)c1ccccc1,-30.5%,"10.3 µM [falling, partial curve]",–
CCCCCn1nc(C(=O)N(CC(C)C)c2c(N)n(CCCC)c(=O)[nH]c2=O)c2ccccc2c1=O,32.4%,"3.26 µM [rising, partial curve]","4.11 µM [rising, partial curve]"
O=C(Nc1ccccc1F)Nc1ccccc1N1CCCCC1,-22.9%,–,"23.1 µM [falling, partial curve]"
O=C(CSc1nnnn1-c1cccc2c1CCCC2)N1CCCC1,-31.4%,"0.206 µM [falling, full curve, poor fit]","0.231 µM [falling, full curve, poor fit]"
Cc1ccc(-c2nnc(C)c(N3CCOCC3)n2)cc1,14%,–,"0.259 µM [falling, full curve, poor fit]"
COc1cccc(-n2c(COc3ccc(C)cc3)nnc2SCC(=O)O)c1,11.4%,–,–
O=[N+]([O-])c1cc(Br)c2nsnc2c1N1CCOCC1,3.86%,–,"2.31 µM [falling, partial curve]"
Cc1ccc(CSc2nnc(-c3ccncc3)n2CC2CCCO2)cc1 (stereo unspecified),–,–,"0.0058 µM [rising, full curve, poor fit]"
Cc1cc(C)cc(Nc2cnn(C34CC5CC(CC(CC(=O)O)(C5)C3)C4)c(=O)c2Cl)c1,–,–,"0.259 µM [falling, partial curve]"
CN1CCN(C(c2cccc(Cl)c2)c2ccccc2Cl)CC1 (stereo unspecified),-21.8%,–,"9.2 µM [falling, partial curve]"
COc1ccc(/C=N/NC(=O)c2cc(Br)ccc2O)cc1Cn1cc(Cl)cn1,-61.6%,"20.6 µM [falling, single point]","0.13 µM [falling, full curve, poor fit]"
CC(=O)Nc1sc(C)c(C)c1C(=O)OCC(=O)NC(C)c1ccccc1 (stereo unspecified),2.45%,–,–
CC1CCN(S(=O)(=O)c2cccc(C(=O)Nc3ccccn3)c2)CC1,–,"6.51 µM [rising, single point]",–
O=C(Nc1ccc2c(c1)OCO2)C1CC(c2cccc(Br)c2)=NO1 (stereo unspecified),19.3%,–,"20.6 µM [rising, single point]"
CCCS(=O)(=O)N1CCC(C(=O)Oc2ccc(OC)cc2)CC1,10.1%,–,"0.731 µM [rising, single point]"
CCOc1ccc(N2CC(C(=O)Nc3nnc(Cc4ccc(OC)c(OC)c4)s3)CC2=O)cc1 (stereo unspecified),2.63%,–,–
CCOc1ccc2oc(C(=O)Nc3ccc(N4CCOCC4)cc3)c(C)c2c1,66.1%,"29.1 µM [rising, single point]","0.231 µM [falling, full curve, poor fit]"
COc1ccc(-c2cc3c(=O)n(CC(=O)NC4CCN(Cc5ccccc5)CC4)ncn3n2)cc1,1.27%,–,"0.731 µM [falling, full curve]"
N=c1c(C(=O)NCCc2ccccc2)cc2c(=O)n3ccccc3nc2n1CCCN1CCOCC1,–,–,"0.731 µM [falling, full curve, poor fit]"
O=C(Oc1ccc2c3c(c(=O)oc2c1)CCCC3)c1cccs1,-19.3%,"0.517 µM [falling, full curve]","0.58 µM [falling, single point]"

Structure (SMILES),cell number change,AC50 [1],AC50 [2]
COC(=O)/C(=C/Nc1ccccc1)[N+](=O)[O-],-30.6%,"6.51 µM [falling, partial curve, poor fit]","2.06 µM [falling, partial curve]"
COC(=O)c1c(C)oc2c1cc(NS(=O)(=O)c1cccs1)c1ccccc12,48.2%,"1.03 µM [rising, full curve]","7.31 µM [rising, partial curve]"
CC1(C)Cc2ccccc2-c2nc3n(c(=O)c21)CCCS3,-41.5%,"20.6 µM [falling, single point]",–
O=C(NC(=S)N1CCOCC1)c1cc2ccccc2o1,38.3%,–,–
C/C(=N/N=C(\C)c1ccccc1O)c1ccccc1O,19.4%,"6.51 µM [rising, single point]",–
Cc1c(C(=O)c2cccc(F)c2)c2ccccn2c1CCC#N,33.4%,"0.92 µM [rising, full curve, poor fit]","0.206 µM [rising, full curve, poor fit]"
O=C(Nc1ccc2c(c1)OCO2)c1ccc(N2CCCC2)c([N+](=O)[O-])c1,-14.9%,–,–
COc1ccc(CCNC(=O)c2c(O)c3cccc4c3n(c2=O)CC4)cc1,43.7%,–,–
CCOc1ccc(NC(=O)NC2(C(=O)NCc3ccco3)CCCCC2)cc1,-15.2%,–,"0.00461 µM [falling, full curve, poor fit]"
CCOc1ccc(C(=O)NCc2ccncc2)cc1OCC,3.82%,–,"0.651 µM [rising, full curve]"
COCCN(CC(=O)Nc1cccc(C)c1C)C(=O)Cn1c(=O)cnc2ccccc21,15.9%,–,"0.0259 µM [rising, full curve, poor fit]"
Cc1cccc(C)c1NC(=O)CN(c1ccccn1)S(=O)(=O)c1ccccc1,43.8%,"11.6 µM [rising, partial curve, poor fit]","29.1 µM [rising, single point]"
Cc1noc(C)c1CSCC(=O)Oc1ccc(N(C)S(=O)(=O)c2ccc(Cl)cc2)cc1,-4.62%,–,–
Cc1nnc(Nc2ccc(C(=O)NCCO)cc2)c2ccccc12,-7.92%,"0.116 µM [falling, single point]",–
Cc1ccc(C(=O)NC(=S)NCC2CCCO2)cc1Br (stereo unspecified),18.6%,–,"25.9 µM [rising, single point]"
COc1cc2c(cc1NC(=O)c1ccc3c(c1)OCO3)oc1ccccc12,5.08%,"4.11 µM [rising, single point]","6.51 µM [rising, single point]"
Cc1cc(NS(=O)(=O)c2ccccc2)c([N+](=O)[O-])cc1C,28.6%,"3.26 µM [rising, full curve, poor fit]","29.1 µM [rising, single point]"
Cc1ccccc1Cn1ccc(NC(=O)c2nn(C)cc2[N+](=O)[O-])n1,15.1%,–,"23.1 µM [rising, partial curve, poor fit]"
O=c1[nH]c(=O)n(Cc2ccccc2)c2nc(-c3ccc(C(F)(F)F)cc3)n(CCO)c12,185%,"29.1 µM [rising, single point]","29.1 µM [falling, single point]"
O=C(Cc1ccc(Cl)cc1)NNC(=O)c1ccco1,-15.2%,–,"0.058 µM [falling, full curve, poor fit]"

# Retrieved by structure from above:
Structure (SMILES),cell number change,AC50 [1],AC50 [2]
Cc1ccccc1Cn1ccc(NC(=O)c2nn(C)cc2[N+](=O)[O-])n1,15.1%,–,"23.1 µM [rising, partial curve, poor fit]"
CCOc1ccc(C(=O)NCc2ccncc2)cc1OCC,3.82%,–,"0.651 µM [rising, full curve]"

# Additional compounds follow.

Structure (SMILES),cell number change,AC50 [1],AC50 [2]
COc1ccc(OC)c(C2C(C(=O)Nc3ccccc3OC)=C(C)Nc3nc(CCCO)nn32)c1 (stereo unspecified),-58.4%,"29.1 µM [falling, single point]","0.206 µM [rising, full curve, poor fit]"
COc1cccc(/C=N/NC(=O)c2c(C)nc3ccc(Cl)cn23)c1O,21.6%,–,"29.1 µM [rising, single point]"
O=C1CSC(c2ccc([N+](=O)[O-])cc2)N1CCN1CCCCC1 (stereo unspecified),-4.78%,–,"0.517 µM [falling, single point]"
O=C(COc1ccccc1)Nc1ccc([N+](=O)[O-])cc1,0.489%,–,"29.1 µM [rising, single point]"
Cc1ccc(S(=O)(=O)c2cc3c(=O)n4cccc(C)c4nc3n(Cc3ccco3)c2=N)cc1C,-14.6%,–,–
O=C1CCCN1CCCN1C(=O)N[C@@H](Cc2ccccc2)C1=O,-23%,"4.11 µM [falling, single point]","0.731 µM [falling, full curve]"
CCCCOc1ccc(-c2nnn(CC(=O)c3c[nH]c4ccccc34)n2)cc1,-18.5%,–,"0.103 µM [falling, full curve, poor fit]"
CC(C)(NO)/C(=N/O)c1cccs1,-11.1%,–,–
Cc1cnc(C(=O)OCC(=O)c2ccc(Cl)cc2)cn1,40.3%,–,–
CCc1ccccc1OCC(=O)Nc1cccc(S(=O)(=O)N2CCCC2)c1,–,"0.461 µM [rising, full curve, poor fit]",–
CC(CCc1ccccc1)NC(=O)C(=O)NCCO (stereo unspecified),-88.6%,"2.06 µM [falling, partial curve, poor fit]",–
COc1ccc(C(=O)NCCSc2ccccc2C)cc1,0.493%,–,–
CC1CCCC(C)N1C(=O)c1ccc(S(=O)(=O)NCc2ccco2)cc1 (stereo unspecified),-0.435%,–,"25.9 µM [rising, partial curve]"
O=C(COC(=O)c1cccc(S(=O)(=O)N2CCCCC2)c1)NCc1ccccc1,8.85%,–,"3.26 µM [falling, single point]"
COc1cc(/C=C/[N+](=O)[O-])ccc1OC(=O)/C=C/c1ccc(F)cc1,-3.52%,–,–
O=[N+]([O-])c1ccc(CNc2ccc(Cl)cc2)s1,-8.84%,–,"29.1 µM [rising, single point]"
CC(C)Cn1c(=O)n(C)c(=O)c2[nH]cnc21,8.33%,–,"0.058 µM [rising, full curve, poor fit]"
CC(=O)c1cccc(NC(=O)N2CCCC2C(=O)NCCc2ccccc2)c1 (stereo unspecified),38%,"25.9 µM [rising, single point]",–
COCCOC(=O)c1c(C)n(C)c2ccc(OC(=O)N3CCOCC3)cc12,–,–,"0.259 µM [rising, full curve]"
CC(C)c1ccc(NC(=O)C(c2ccccc2)N2CCC3(CC2)OCCO3)cc1 (stereo unspecified),-11.6%,–,"29.1 µM [falling, single point]"

# Limited to cell number change, for four of the compounds above:
Structure (SMILES),cell number change
COc1cc(/C=C/[N+](=O)[O-])ccc1OC(=O)/C=C/c1ccc(F)cc1,-3.52%
O=[N+]([O-])c1ccc(CNc2ccc(Cl)cc2)s1,-8.84%
CC(C)Cn1c(=O)n(C)c(=O)c2[nH]cnc21,8.33%
CC(=O)c1cccc(NC(=O)N2CCCC2C(=O)NCCc2ccccc2)c1 (stereo unspecified),38%

# Source: PubChem BioAssay AID2685 (National Center for Advancing Translational Sciences (NCATS), 2010)
